# Assay results reported in publication PMC7609059.
# No constants are given. Whether binding was seen depends on the method and setting. In cells and extracts the contact can be indirect. These calls come from enrichment with a bait or labelling near it, and not all partners need be listed. Where a sequence is shown, tags or fusion partners need not be part of it.
# T1: FLAG-tagged version of the 80 C-terminal aa of Atg43 (aa 165-244) (S. pombe) (UniProt O13709)
# T1 sequence: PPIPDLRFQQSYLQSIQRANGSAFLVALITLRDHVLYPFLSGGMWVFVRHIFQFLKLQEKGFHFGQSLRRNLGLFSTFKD
# B1: Mim2 (endogenous) (protein, UniProt G2TRP0 1-72)
# chain: MAEVLDLEIDPISDGEDDTYSSELDDDLKDSIEQLERVLCLVVFPLLGKFLGRKFAFHAWARWLERRRLVSN
# Target: T1, FLAG-tagged version of the 80 C-terminal aa of Atg43 (aa 165-244) (S. pombe)
# Assay: affinity purification with mass spectrometry
binder,measurement,value
B1,binding,binds
